For one substance, binding results are on record in PMC11915853.

For this experiment, the target named is T1, GST-fused capsid protein of tomato yellow leaf curl virus (tomato yellow leaf curl virus) (UniProt P27257).
T1 sequence: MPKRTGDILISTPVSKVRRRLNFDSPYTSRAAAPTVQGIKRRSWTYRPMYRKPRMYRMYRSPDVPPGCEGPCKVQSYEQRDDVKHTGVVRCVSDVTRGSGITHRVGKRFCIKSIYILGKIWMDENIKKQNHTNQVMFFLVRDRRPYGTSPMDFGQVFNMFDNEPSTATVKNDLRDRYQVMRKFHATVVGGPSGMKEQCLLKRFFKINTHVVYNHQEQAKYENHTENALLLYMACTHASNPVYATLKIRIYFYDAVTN
Kind of experiment: pull-down; GST-tagged CPs or GST from bacterial lysates immobilised on MagneGST particles, incubated with bacterial lysate expressing 6x-his-PDE4 overnight at 4°C, washed three times; blots with anti-histidine and anti-GST; only the target purified.

These are yes or no findings as the source states them, for the method shown. In cells and extracts the contact can be indirect. Binding can be weak; no strength is given. Sequences can lack the tags named with a protein.

In the case of 6x-his-PDE4 of Bemisia tabaci (enzyme), the binding entry is “binds”.
